We go through 7 molecules from paper PMC4716144.

Sequences of proteins named here, by UniProt entry; tags and fusion partners are left off. Residues count along the entry.
UniProt P15208, residues 28-1372: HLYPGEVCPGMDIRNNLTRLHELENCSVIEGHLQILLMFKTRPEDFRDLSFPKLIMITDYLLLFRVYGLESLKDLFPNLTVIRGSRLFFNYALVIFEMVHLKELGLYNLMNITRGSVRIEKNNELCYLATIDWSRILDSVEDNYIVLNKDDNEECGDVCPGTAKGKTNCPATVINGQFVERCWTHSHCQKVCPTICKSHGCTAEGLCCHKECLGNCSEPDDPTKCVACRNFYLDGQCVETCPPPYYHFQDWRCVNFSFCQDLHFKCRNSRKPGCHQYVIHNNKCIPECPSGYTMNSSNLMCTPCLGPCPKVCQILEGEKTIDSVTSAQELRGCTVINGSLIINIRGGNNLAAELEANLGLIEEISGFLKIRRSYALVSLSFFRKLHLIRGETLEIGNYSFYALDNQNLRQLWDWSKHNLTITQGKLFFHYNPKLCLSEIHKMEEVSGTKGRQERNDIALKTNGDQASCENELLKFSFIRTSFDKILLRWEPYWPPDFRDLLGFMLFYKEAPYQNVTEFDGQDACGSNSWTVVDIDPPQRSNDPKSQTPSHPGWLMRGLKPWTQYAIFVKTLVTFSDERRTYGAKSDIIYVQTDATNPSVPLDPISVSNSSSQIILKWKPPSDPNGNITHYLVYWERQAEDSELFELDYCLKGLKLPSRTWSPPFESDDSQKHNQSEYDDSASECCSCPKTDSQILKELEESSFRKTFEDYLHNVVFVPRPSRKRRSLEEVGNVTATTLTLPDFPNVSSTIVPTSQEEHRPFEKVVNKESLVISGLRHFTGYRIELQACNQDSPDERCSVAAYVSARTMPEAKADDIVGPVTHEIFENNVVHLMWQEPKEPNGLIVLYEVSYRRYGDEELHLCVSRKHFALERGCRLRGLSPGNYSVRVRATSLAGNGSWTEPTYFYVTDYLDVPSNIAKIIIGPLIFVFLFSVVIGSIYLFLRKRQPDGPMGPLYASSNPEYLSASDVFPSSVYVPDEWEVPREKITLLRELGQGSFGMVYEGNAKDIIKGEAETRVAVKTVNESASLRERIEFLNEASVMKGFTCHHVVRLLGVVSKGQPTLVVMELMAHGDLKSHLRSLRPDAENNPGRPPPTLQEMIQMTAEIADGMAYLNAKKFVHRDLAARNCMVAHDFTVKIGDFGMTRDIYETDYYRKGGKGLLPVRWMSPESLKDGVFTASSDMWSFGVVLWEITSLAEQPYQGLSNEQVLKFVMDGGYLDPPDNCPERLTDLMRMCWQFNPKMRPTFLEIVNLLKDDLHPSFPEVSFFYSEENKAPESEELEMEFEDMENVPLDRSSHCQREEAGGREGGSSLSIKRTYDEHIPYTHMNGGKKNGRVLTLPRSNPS
UniProt Q8VHK1: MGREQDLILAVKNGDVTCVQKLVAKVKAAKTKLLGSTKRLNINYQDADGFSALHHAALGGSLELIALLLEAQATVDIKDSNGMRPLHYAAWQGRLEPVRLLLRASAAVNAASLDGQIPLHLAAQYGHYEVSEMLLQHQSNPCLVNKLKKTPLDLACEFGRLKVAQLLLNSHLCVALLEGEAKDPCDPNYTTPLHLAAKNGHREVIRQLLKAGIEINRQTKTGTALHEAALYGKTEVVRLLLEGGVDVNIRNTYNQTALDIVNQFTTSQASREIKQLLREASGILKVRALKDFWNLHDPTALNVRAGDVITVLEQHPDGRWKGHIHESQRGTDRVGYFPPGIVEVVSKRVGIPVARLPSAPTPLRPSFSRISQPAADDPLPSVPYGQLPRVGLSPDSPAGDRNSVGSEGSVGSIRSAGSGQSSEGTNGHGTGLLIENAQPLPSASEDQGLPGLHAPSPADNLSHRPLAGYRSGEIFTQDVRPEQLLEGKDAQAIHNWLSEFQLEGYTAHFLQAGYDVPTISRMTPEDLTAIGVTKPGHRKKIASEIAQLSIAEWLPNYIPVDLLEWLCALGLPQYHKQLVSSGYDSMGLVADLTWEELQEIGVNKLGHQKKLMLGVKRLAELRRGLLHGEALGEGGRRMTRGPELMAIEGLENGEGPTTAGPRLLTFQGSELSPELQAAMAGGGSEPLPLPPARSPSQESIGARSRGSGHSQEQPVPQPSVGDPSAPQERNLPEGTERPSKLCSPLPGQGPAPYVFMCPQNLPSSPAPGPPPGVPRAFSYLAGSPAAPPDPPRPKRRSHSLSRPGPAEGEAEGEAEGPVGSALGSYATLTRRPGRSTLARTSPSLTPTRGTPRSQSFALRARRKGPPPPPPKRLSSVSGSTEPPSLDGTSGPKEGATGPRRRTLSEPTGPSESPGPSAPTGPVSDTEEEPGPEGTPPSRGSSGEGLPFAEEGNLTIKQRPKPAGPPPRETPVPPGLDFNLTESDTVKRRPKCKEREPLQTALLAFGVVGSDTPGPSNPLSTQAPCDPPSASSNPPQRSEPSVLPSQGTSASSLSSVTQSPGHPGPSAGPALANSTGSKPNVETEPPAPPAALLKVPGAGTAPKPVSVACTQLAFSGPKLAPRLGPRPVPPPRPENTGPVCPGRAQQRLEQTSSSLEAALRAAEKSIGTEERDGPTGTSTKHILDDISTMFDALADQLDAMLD
UniProt Q8CG46: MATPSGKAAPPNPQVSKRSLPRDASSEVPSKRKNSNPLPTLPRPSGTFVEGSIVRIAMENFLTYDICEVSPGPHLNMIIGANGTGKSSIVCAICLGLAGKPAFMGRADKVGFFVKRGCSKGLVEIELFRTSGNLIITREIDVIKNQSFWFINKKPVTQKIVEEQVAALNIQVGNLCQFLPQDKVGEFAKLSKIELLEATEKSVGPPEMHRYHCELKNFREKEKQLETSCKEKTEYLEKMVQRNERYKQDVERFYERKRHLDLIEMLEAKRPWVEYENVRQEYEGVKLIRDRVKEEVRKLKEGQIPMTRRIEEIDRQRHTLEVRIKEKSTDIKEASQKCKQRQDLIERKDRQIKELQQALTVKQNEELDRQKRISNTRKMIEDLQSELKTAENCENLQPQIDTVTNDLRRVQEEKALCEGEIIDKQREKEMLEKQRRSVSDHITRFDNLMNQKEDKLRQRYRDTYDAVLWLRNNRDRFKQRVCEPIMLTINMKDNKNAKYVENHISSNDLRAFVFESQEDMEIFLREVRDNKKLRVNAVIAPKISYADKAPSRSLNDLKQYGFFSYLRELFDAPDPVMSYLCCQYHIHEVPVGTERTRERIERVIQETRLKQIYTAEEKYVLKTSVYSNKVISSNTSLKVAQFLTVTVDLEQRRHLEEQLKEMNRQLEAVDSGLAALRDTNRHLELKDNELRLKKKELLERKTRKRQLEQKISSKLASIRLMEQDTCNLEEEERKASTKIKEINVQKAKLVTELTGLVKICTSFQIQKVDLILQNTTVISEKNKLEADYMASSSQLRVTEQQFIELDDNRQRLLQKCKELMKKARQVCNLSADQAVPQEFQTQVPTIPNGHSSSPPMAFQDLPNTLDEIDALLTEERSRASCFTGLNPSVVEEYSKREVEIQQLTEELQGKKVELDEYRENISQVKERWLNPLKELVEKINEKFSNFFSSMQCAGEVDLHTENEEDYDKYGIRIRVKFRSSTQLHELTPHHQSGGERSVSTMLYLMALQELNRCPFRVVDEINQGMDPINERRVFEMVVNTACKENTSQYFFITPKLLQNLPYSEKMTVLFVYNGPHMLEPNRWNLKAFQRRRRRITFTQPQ
UniProt P59048: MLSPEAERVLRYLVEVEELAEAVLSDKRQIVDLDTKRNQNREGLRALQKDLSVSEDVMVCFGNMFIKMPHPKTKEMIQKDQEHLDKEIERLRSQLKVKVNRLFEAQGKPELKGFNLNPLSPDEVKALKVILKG
UniProt Q9QYR6: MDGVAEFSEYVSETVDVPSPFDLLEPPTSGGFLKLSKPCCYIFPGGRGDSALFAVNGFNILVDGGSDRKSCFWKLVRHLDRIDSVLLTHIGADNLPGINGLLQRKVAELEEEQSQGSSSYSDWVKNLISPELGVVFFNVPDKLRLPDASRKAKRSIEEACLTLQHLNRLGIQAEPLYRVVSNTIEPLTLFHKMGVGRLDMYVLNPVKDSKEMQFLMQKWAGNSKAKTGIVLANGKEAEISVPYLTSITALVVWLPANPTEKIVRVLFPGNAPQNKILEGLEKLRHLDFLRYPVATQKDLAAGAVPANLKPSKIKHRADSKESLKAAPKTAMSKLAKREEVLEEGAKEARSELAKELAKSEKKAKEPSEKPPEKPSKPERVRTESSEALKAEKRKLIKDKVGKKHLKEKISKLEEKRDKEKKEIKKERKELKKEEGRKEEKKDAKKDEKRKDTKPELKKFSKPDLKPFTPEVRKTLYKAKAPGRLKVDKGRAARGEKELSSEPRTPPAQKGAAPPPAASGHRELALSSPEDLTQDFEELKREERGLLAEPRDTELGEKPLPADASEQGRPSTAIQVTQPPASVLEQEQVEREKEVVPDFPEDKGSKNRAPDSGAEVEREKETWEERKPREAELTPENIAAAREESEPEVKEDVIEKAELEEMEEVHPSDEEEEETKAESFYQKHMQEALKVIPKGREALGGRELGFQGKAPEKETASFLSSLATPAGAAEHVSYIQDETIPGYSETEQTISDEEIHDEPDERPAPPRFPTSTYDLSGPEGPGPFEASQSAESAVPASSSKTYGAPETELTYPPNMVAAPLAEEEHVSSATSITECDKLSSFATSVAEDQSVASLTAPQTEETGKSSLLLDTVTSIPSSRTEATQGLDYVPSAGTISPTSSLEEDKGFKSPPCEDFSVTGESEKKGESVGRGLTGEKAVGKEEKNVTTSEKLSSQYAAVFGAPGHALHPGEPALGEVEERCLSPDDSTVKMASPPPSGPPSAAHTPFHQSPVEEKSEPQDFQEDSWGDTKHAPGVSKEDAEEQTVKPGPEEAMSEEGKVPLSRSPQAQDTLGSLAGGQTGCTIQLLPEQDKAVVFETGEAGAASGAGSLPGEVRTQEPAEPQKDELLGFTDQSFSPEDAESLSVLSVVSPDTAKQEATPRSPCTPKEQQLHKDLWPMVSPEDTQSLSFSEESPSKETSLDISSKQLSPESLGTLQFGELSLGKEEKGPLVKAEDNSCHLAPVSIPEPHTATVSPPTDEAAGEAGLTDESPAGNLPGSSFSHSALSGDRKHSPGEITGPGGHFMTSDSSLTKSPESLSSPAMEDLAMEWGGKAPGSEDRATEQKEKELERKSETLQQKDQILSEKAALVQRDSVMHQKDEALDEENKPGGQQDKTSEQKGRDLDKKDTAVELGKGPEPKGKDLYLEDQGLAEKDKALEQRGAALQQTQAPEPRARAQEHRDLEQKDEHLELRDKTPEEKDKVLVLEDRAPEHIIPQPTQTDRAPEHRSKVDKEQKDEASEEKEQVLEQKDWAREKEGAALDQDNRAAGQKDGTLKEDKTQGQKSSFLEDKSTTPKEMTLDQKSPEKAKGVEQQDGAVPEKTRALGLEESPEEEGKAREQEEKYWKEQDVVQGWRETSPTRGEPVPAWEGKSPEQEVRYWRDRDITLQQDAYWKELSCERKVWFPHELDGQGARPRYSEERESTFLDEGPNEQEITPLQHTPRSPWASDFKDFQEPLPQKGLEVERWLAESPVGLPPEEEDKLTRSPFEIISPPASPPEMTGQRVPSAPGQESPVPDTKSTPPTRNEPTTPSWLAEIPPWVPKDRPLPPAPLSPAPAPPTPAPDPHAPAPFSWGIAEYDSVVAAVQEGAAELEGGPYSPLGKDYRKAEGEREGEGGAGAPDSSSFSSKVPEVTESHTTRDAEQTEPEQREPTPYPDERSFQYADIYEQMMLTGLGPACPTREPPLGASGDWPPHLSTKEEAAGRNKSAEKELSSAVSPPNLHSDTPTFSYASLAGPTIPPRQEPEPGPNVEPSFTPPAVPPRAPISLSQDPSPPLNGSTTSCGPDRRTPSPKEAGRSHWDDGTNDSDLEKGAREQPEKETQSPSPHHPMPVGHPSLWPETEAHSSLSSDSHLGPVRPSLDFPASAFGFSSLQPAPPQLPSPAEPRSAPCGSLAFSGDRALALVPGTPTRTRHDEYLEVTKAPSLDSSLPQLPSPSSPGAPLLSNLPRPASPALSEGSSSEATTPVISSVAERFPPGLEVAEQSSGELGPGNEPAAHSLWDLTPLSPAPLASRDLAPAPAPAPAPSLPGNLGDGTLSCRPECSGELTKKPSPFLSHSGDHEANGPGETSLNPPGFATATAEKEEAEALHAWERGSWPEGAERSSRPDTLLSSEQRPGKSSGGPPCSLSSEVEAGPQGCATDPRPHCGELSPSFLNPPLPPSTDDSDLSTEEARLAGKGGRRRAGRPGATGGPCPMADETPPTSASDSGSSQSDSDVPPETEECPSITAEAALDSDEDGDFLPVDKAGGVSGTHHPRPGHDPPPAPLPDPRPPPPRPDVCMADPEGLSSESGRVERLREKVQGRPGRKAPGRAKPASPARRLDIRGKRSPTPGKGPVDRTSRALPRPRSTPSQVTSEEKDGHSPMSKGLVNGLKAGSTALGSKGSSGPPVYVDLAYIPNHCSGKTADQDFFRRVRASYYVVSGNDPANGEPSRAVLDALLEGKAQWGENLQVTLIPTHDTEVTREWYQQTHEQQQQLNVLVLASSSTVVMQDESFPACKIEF

No constants are given. Whether binding was seen depends on the method and setting. Binding seen in cells or lysates may run through a third protein. Some entries that bind do so weakly or less than the wild type.

B1: insulin receptor substrate 2 (protein, UniProt P81122 1-1321)
chain: MASAPLPGPPASAGGDGPNLNNNNNNNNHSVRKCGYLRKQKHGHKRFFVLRGPGTGGDEASAAGGSPPQPPRLEYYESEKKWRSKAGAPKRVIALDCCLNINKRADAKHKYLIALYTKDEYFAVAAENEQEQEGWYRALTDLVSEGRSGEGGSGTTGGSCSASLPGVLGGSAGAAGCDDNYGLVTPATAVYREVWQVNLKPKGLGQSKNLTGVYRLCLSARTIGFVKLNCEQPSVTLQLMNIRRCGHSDSFFFIEVGRSAVTGPGELWMQADDSVVAQNIHETILEAMKALKELFEFRPRSKSQSSGSSATHPISVPGARRHHHLVNLPPSQTGLVRRSRTDSLAATPPAAKCTSCRVRTASEGDGGAAGGAGTAGGRPMSVAGSPLSPGPVRAPLSRSHTLSAGCGGRPSKVTLAPAGGALQHSRSMSMPVAHSPPAATSPGSLSSSSGHGSGSYPLPPGSHPHLPHPLHHPQGQRPSSGSASASGSPSDPGFMSLDEYGSSPGDLRAFSSHRSNTPESIAETPPARDGSGGELYGYMSMDRPLSHCGRPYRRVSGDGAQDLDRGLRKRTYSLTTPARQRQVPQPSSASLDEYTLMRATFSGSSGRLCPSFPASSPKVAYNPYPEDYGDIEIGSHKSSSSNLGADDGYMPMTPGAALRSGGPNSCKSDDYMPMSPTSVSAPKQILQPRLAAALPPSGAAVPAPPSGVGRTFPVNGGGYKASSPAESSPEDSGYMRMWCGSKLSMENPDPKLLPNGDYLNMSPSEAGTAGTPPDFSAALRGGSEGLKGIPGHCYSSLPRSYKAPCSCSGDNDQYVLMSSPVGRILEEERLEPQATPGAGTFGAAGGSHTQPHHSAVPSSMRPSAIGGRPEGFLGQRCRAVRPTRLSLEGLQTLPSMQEYPLPTEPKSPGEYINIDFGEAGTRLSPPAPPLLASAASSSSLLSASSPASSLGSGTPGTSSDSRQRSPLSDYMNLDFSSPKSPKPSTRSGDTVGSMDGLLSPEASSPYPPLPPRPSTSPSSLQQPLPPAPGDLYRLPPASAATSQGPTAGSSMSSEPGDNGDYTEMAFGVAATPPQPIVAPPKPEGARVASPTSGLKRLSLMDQVSGVEAFLQVSQPPDPHRGAKVIRADPQGGRRRHSSETFSSTTTVTPVSPSFAHNSKRHNSASVENVSLRKSSEGSSTLGGGDEPPTSPGQAQPLVAVPPVPQARPWNPGQPGALIGCPGGSSSPMRRETSVGFQNGLNYIAIDVRGEQGSLAQSQPQPGDKNSWSRTRSLGGLLGTVGGSGASGVCGGPGTGALPSASTYASIDFLSHHLKEATVVKE
B2: F-box protein 24 (protein, UniProt Q9D417 1-589)
chain: MVKRSCPSCGLEAGSEKKERGNPISVQLFPPELVEHIVSFLPVKDLVALGQTCHYFHEVCDAEGVWRRICRRLSPRIRDQSSGARPWKRAAILNYTKGLYFQAFGGRRRCLSKSVAPMLAHGYRRFLPTKDHVFILDYVGTLFFLKNALVSSTLGQIQWKRACRYVVLCRGAKDFASDPRCDTVYRKYLYVLATREQPAVVGTTGSRACDCVEVYLQSSGQRVFKMTFHHSMSFKQIVLVGQETQRALLLLTEEGKIYSLVVNETQLDQPRSYTVQLALRKVSRCLPHLRVTCMASNQSSTLYITGGTLIPRKQVPKAAELRAPDPPDQGGVYFEVHTPGVYRDLFGTLQAFDPLDHQMPLALSLPAKVLFCALGYNHLGLVDEFGRIFMQGNNRYGQLGTGDKMDRGEPTQVHYLQRPIALWCGLNHSLVLSQTSDFSKELLGCGCGAGGRLPGWPKGSASFVKLHIKVPLCACSLCSTRECLYMLSSHDIEQCPVYRDLPASRVGGSPEPSQGAGAPQDPGGTAQACEEYLSQIHSCPTLQDRMEKMKEIVGWMPLMAAQKDFFWEALDMLQRAAGGAGPDTSTPES

The target in the test is T1, G protein-coupled receptor kinase interacting protein 2 (mouse (endogenous in pancreas)) (UniProt Q9JLQ2).
T1 sequence: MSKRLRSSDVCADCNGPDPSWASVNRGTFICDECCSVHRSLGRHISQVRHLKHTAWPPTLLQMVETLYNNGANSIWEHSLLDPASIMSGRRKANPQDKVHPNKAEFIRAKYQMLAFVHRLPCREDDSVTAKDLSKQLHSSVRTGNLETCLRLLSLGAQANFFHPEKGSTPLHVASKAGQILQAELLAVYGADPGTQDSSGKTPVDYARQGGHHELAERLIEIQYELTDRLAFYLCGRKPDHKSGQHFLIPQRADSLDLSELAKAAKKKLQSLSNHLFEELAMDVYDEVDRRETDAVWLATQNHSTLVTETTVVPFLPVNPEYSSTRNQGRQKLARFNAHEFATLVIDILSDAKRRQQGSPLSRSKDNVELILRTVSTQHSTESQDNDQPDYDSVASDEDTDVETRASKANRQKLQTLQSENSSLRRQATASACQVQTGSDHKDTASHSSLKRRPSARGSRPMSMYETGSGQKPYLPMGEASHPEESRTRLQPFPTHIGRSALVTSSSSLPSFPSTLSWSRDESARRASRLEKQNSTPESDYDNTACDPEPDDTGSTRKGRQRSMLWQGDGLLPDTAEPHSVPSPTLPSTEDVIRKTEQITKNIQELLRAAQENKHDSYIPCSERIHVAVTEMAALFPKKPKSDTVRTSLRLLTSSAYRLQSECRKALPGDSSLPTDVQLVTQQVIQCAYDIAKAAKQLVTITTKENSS
In words: co-IP; anti-GIT2 immunoprecipitation from lysates of whole pancreas of WT and db/db mice, normalised for GIT2 content, semi-quantitative Western blot of the co-precipitated partner. A general note: A western blot detects proteins with antibodies after separation by electrophoresis.
“insulin receptor (from UniProt P15208 28-1372)”: the binding entry is “binds”.
As for “CASK-interacting protein 2 (from UniProt Q8VHK1 1-1201)”, the entry is “binds”.
Consider “structural maintenance of chromosomes 5 (from UniProt Q8CG46 1-1101)”, for which the binding result is “binds”.
The same measure for “p53 and DNA damage regulated 1 (from UniProt P59048 1-133)”: “binds”.
The same measure for “microtubule-associated protein 1 A (from UniProt Q9QYR6 1-2776)”: “binds”; for B1: “binds”.
As for B2, the entry is “binds”.
